Data published in the supplement of paper PMC10331698.
± gives the standard deviation of the averaged measurements. Most entries show no effect beyond the scatter of the controls.

Key:
Assay in all cases: level (log10 ratio to DMSO vehicle control); higher = higher biomarker level / cell amount than vehicle control
[1] = compound: C=C(C)C(=O)OCCC(F)(F)C(F)(F)C(F)(F)C(F)(F)C(F)(F)C(F)(F)F [6:2 Fluorotelomer methacrylate] (in DMSO); conditions: 2200 nM
Protocol: (§1)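 BioMAP Diversity Plus panel of 12 human primary cell co-culture systems (3C, 4H, LPS, SAg, BT, BF4T, BE3C, CASM3C, HDF3CGF, KF3CT, MyoF, Mphg). Compounds were added 1 h before stimulation and left for 24 h (MyoF 48 h; BT 72 h for soluble read-outs or 6 d for IgG). Biomarkers were read by ELISA, cytotoxicity by SRB, PBMC viability and proliferation by Alamar Blue. Each well value was divided by the mean of 8 DMSO control wells on the same plate and log10 transformed; duplicate blinded samples were tested at 4 concentrations.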

[2] = compound: CNS(=O)(=O)C(F)(F)C(F)(F)C(F)(F)C(F)(F)C(F)(F)C(F)(F)C(F)(F)C(F)(F)F [N-Methylperfluorooctanesulfonamide] (in DMSO); conditions: 2200 nM
Protocol: as §1

[3] = compound: FC(F)(F)C(F)(F)C(F)(F)C(F)(F)CCI [1H,1H,2H,2H-Perfluorohexyl iodide] (in DMSO); conditions: 2200 nM
Protocol: as §1

[4] = compound: FC(F)(F)C(F)(F)CNCC(F)(F)C(F)(F)F [Bis(1H,1H-perfluoropropyl)amine] (in DMSO); conditions: 2200 nM
Protocol: as §1

[5] = compound: FC(F)(F)COC(OCC(F)(F)F)OCC(F)(F)F [tris(Trifluoroethoxy)methane] (in DMSO); conditions: 2200 nM
Protocol: as §1

Hexafluoroglutaric acid = compound: O=C(O)C(F)(F)C(F)(F)C(F)(F)C(=O)O [Hexafluoroglutaric acid] (in DMSO)
Protocol: as §1

Perfluorohexanoic acid = compound: O=C(O)C(F)(F)C(F)(F)C(F)(F)C(F)(F)C(F)(F)F [Perfluorohexanoic acid] (in DMSO)
Protocol: as §1

[6] = compound: O=C(O)C(F)(F)C(F)(F)C(F)(F)OC(F)(C(F)(F)F)C(F)(F)F [Perfluoro-4-isopropoxybutanoic acid] (in DMSO); conditions: 2200 nM
Protocol: as §1

[7] = compound: O=C(O)C(F)(OC(F)(F)C(F)(F)C(F)(F)F)C(F)(F)F [Ammonium perfluoro-2-methyl-3-oxahexanoate] (in Water)
Protocol: as §1

[8] = compound: O=C(O)C(F)(OC(F)(F)C(F)(OC(F)(F)C(F)(OC(F)(F)C(F)(F)C(F)(F)F)C(F)(F)F)C(F)(F)F)C(F)(F)F [Perfluoro-(2,5,8-trimethyl-3,6,9-trioxadodecanoic)acid] (in DMSO); conditions: 370 nM
Protocol: as §1

[9] = compound: O=C(O)CCC(F)(F)C(F)(F)C(F)(F)F [3:3 Fluorotelomer carboxylic acid] (in DMSO); conditions: 2200 nM
Protocol: as §1

[10] = compound: O=S(=O)(O)C(F)(F)C(F)(F)C(F)(F)C(F)(F)F [Perfluorobutanesulfonic acid] (in DMSO)
Protocol: as §1

[11] = compound: OCC(F)(F)C(F)(F)C(F)(F)C(F)(F)C(F)(F)C(F)(F)CO [1H,1H,8H,8H-Perfluorooctane-1,8-diol] (in DMSO); conditions: 2200 nM
Protocol: as §1

[12] = compound: OCC(F)(F)C(F)(F)C(F)(F)C(F)(F)C(F)(F)C(F)(F)F [6:1 Fluorotelomer alcohol] (in DMSO); conditions: 2200 nM
Protocol: as §1

[13] = compound: OCC(F)(F)C(F)(F)C(F)(F)C(F)F [1H,1H,5H-Perfluoropentanol] (in DMSO); conditions: 2200 nM
Protocol: as §1

[14] = compound: OCC(F)(F)OC(F)(F)C(F)(F)OC(F)(F)CO [1H,1H,8H,8H-Perfluoro-3,6-dioxaoctane-1,8-diol] (in DMSO); conditions: 2200 nM
Protocol: as §1

[15] = compound: OCCCC(F)(F)C(F)(F)C(F)(F)C(F)(F)C(F)(F)C(F)(F)C(F)(F)C(F)(F)F [3-(Perfluorooctyl)propanol] (in DMSO); conditions: 2200 nM
Protocol: as §1

| Test System | level (log10) [1] | level (log10) [2] | level (log10) [3] | level (log10) [4] | level (log10) [5] | level (log10) (Hexafluoroglutaric acid; 2200 nM) | level (log10) (Hexafluoroglutaric acid; 6700 nM) | level (log10) (Hexafluoroglutaric acid; 20000 nM) | level (log10) (Hexafluoroglutaric acid; 60000 nM) | level (log10) (Perfluorohexanoic acid; 2200 nM) | level (log10) (Perfluorohexanoic acid; 6700 nM) | level (log10) (Perfluorohexanoic acid; 20000 nM) | level (log10) (Perfluorohexanoic acid; 60000 nM) | level (log10) [6] | level (log10) ([7]; 2200 nM) | level (log10) ([7]; 6700 nM) | level (log10) ([7]; 20000 nM) | level (log10) ([7]; 60000 nM) | level (log10) [8] | level (log10) [9] | level (log10) ([10]; 2200 nM) | level (log10) ([10]; 6700 nM) | level (log10) ([10]; 20000 nM) | level (log10) ([10]; 60000 nM) | level (log10) [11] | level (log10) [12] | level (log10) [13] | level (log10) [14] | level (log10) [15] |
| --- | --- | --- | --- | --- | --- | --- | --- | --- | --- | --- | --- | --- | --- | --- | --- | --- | --- | --- | --- | --- | --- | --- | --- | --- | --- | --- | --- | --- | --- |
| KF3CT:uPA | -0.016 ± 0.014 | 0.02 ± 0.0042 | 0.0105 ± 0.013 | 0.011 ± 0.024 | 0.011 ± 0.018 | -0.017 ± 0.013 | -0.019 ± 0.024 | -0.0055 ± 0.0035 | -0.011 ± 0.011 | -0.0095 ± 0.021 | 0.0125 ± 0.0064 | -0.004 ± 0.0085 | 0.016 ± 0.0099 | 0.001 ± 0.0057 | -0.01 ± 0.031 | -0.0275 ± 0.043 | -0.009 ± 0.0099 | -0.0175 ± 0.019 | -0.0005 ± 0.012 | 0.002 ± 0.0014 | -0.0045 ± 0.032 | -0.0275 ± 0.029 | -0.0215 ± 0.00071 | -0.0035 ± 0.00071 | 0.005 ± 0.0071 | -0.0195 ± 0.013 | -0.0085 ± 0.013 | 0.003 ± 0.0057 | -0.001 ± 0.047 |
| LPS:CCL2/MCP-1 | -0.0045 ± 0.037 | 0.013 ± 0.016 | -0.015 ± 0.011 | 0.008 ± 0.0099 | 0.0295 ± 0.081 | -0.0075 ± 0.026 | -0.0135 ± 0.026 | -0.012 ± 0.011 | -0.004 ± 0.013 | 0.0005 ± 0.023 | -0.0035 ± 0.00071 | -0.008 ± 0.027 | -0.0045 ± 0.018 | -0.0095 ± 0.03 | 0.027 ± 0.018 | 0.0325 ± 0.033 | -0.017 ± 0.023 | -0.001 ± 0.0014 | 0.0045 ± 0.044 | -0.0005 ± 0.025 | -0.035 ± 0.079 | -0.0285 ± 0.057 | -0.021 ± 0.027 | -0.035 ± 0.0014 | 0.024 ± 0.0028 | -0.0045 ± 0.033 | 0.01 ± 0.037 | 0.0055 ± 0.013 | -0.0055 ± 0.03 |
| LPS:CD40 | -0.027 ± 0.0099 | -0.0375 ± 0.043 | 0.016 ± 0.027 | 0.05 ± 0.035 | -0.0265 ± 0.052 | -0.018 ± 0.018 | 0 ± 0.0028 | -0.0035 ± 0.035 | 0.0085 ± 0.046 | 0.0465 ± 0.11 | 0.041 ± 0.096 | 0.038 ± 0.13 | 0.0215 ± 0.14 | 0.0095 ± 0.033 | -0.0295 ± 0.011 | -0.014 ± 0.018 | -0.0145 ± 0.016 | -0.045 ± 0.03 | 0.049 ± 0.083 | 0.005 ± 0.025 | -0.011 ± 0.0085 | -0.0395 ± 0.00071 | -0.0375 ± 0.029 | -0.0555 ± 0.052 | -0.028 ± 0.024 | 0.0375 ± 0.029 | -0.027 ± 0.0099 | 0.009 ± 0.038 | -0.0215 ± 0.049 |
